Measured values taken from PubChem BioAssay AID588590 (National Center for Advancing Translational Sciences (NCATS), 2011).
Screen size: about 390,000 compounds; about 4,000 (1%) were called active. This list was built around the results that the source calls inconclusive (neither active nor inactive); the mix of calls is not that of the screen. Calls come from the whole dose curve; as a rule, active = well fitted inhibition curve with a large enough effect; inconclusive = small, poorly fitted or top-dose-only effect, or another doubt; inactive = no such curve, though single readings can be large or run the other way. A potency beside an inconclusive call is a rough fit, not a confirmed value.

Chains of the proteins cited; added tags and fusions are not shown. Lines headed by an entry give the natural chain unless they say otherwise; changes in a name come on top.
UniProt Q9UNA4: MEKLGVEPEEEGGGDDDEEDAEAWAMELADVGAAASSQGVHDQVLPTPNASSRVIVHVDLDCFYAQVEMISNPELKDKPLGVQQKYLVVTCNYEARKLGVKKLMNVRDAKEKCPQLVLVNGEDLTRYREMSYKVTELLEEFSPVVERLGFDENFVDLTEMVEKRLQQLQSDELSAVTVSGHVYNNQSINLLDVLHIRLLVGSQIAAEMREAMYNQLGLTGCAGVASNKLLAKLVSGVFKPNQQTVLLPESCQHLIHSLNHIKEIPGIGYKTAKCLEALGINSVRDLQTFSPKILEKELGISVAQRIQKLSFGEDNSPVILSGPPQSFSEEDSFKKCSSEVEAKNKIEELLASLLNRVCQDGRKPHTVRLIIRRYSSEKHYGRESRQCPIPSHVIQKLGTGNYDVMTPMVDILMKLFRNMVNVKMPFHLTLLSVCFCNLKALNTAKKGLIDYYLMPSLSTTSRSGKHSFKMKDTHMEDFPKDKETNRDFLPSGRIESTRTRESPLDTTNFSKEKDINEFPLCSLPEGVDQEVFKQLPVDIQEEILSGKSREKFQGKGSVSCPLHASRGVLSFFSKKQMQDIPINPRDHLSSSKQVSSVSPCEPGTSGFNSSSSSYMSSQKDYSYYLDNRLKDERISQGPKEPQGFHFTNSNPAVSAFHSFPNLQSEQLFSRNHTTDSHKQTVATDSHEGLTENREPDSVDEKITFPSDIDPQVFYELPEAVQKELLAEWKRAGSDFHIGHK

Biological target: DNA polymerase iota (Homo sapiens) (UniProt Q9UNA4)
Test: qHTS for Inhibitors of Polymerase Iota
Details: Pol iota fluorescent replication assay, 10 min; series mostly up to 115 µM; activity, negative = inhibition: at the top concentration
In short: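 Pol iota at 10 nM preincubated 15 min with compounds at room temperature; reaction started with fluorescent substrate, 50 nM final. Fluorescence read kinetically at 0 and 10 min; buffer-only wells as negative control.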
Potency is the fitted concentration of half-maximal effect.

Row | SMILES | Potency | activity, negative = inhibition
1 | N/C(=N\OC(=O)C1CC1)c1ccc([N+](=O)[O-])s1 | inconclusive: 0.355 µM [inhibitor, partial curve, poor fit] | 
2 | Cc1nnc(NC(=O)CCSCCC(=O)Nc2nnc(C)s2)s1 | active: 17.8 µM | 
3 | CCOC(=O)C1=C(C)Nc2nc(C)nn2C1c1ccc(OCC)c(OC)c1 (stereo not given) | inconclusive: 56.2 µM [inhibitor, partial curve, poor fit] | 
4 | Fc1ccc2c(c1)-c1c(cnc3cc(-c4ccc(Cl)cc4)nn13)CO2 | inconclusive: 89.1 µM [inhibitor, single point] | 
5 | CC(C)N(C)Cc1nnnn1CC(=O)NCc1cc(F)cc(C(F)(F)F)c1 | inconclusive: 89.1 µM [inhibitor, single point] | 
6 | CCc1ccccc1N(C)S(=O)(=O)c1ccc2c(c1)C(C)(C)C(=O)N2C |  | inactive: 7.29%
7 | Cc1ccccc1-c1cc(C(=O)NCc2ccc(OC(F)(F)F)cc2)n(CC2CC(c3cccnc3)=NO2)n1 (stereo not given) | inconclusive: 10 µM [inhibitor, partial curve, poor fit] | 
8 | CCn1cc2nc(SCc3ccc(F)cc3)n(CCc3ccccc3)c(=O)c2n1 |  | inactive: -6.07%
9 | Cc1ccc2nc3c(cc(C(=O)NCc4ccco4)c(=N)n3Cc3ccco3)c(=O)n2c1 | inconclusive: 25.1 µM [inhibitor, partial curve] | 
10 | CC(=O)Nc1ccc(NC(=O)c2ccc(-c3ccc([N+](=O)[O-])cc3)o2)cc1 | inconclusive: 79.4 µM [inhibitor, single point] | 
11 | CC(/C=C/c1ccc(N(C)C)cc1)=N\N=C1\NC(=O)CC(C(=O)Nc2ccccc2)S1 (stereo not given) | inconclusive: 56.2 µM [inhibitor, single point] | 
12 | Cc1cccc(C)c1OCCCCc1c(C)n[nH]c1C | inconclusive: 25.1 µM [inhibitor, partial curve, poor fit] | 
13 | Clc1ccc(/C=N/c2c(-c3ccco3)nc3ccccn23)cc1 | inconclusive: 20 µM [inhibitor, full curve, poor fit] | 
14 | CCCOc1ccc(C2C(C(=O)c3ccc(C)o3)=C(O)C(=O)N2Cc2ccco2)cc1 (stereo not given) | inconclusive: 28.2 µM [inhibitor, partial curve, poor fit] | 
15 | Cc1cc(NC(=O)Cn2c(=O)oc3cc(S(=O)(=O)N4CCCC4)ccc32)ccc1Br |  | inactive: -2.68%
16 | Cc1ccc(C)c(S(=O)(=O)Nc2cc(SCC(=O)O)c(O)c3ccccc23)c1 | active: 8.91 µM | 
17 | Cc1cc(NS(=O)(=O)c2ccc(NC(=O)CSc3nc4sc(C(=O)O)c(C)c4c(=O)[nH]3)cc2)no1 |  | inactive: 62.7%
18 | O=C(CSc1nnc(-c2cccc(F)c2)c(-c2cccc(F)c2)n1)NC1CCCCC1 |  | inactive: 13.8%
19 | CNS(=O)(=O)c1cccc(C(=O)NCC2(N3CCCCC3)CCCCC2)c1 | inconclusive: 79.4 µM [inhibitor, single point] | 
20 | COc1ccc(C(=O)Nn2cnc3scc(-c4cccs4)c3c2=O)c(O)c1 | inconclusive: 89.1 µM [inhibitor, single point] | 
21 | CN(C)/C=C\C(=C/C(=O)C(F)(F)F)Nc1ccccc1Oc1ccccc1 | inconclusive: 15.8 µM [inhibitor, partial curve, poor fit] | 
22 | COc1ccc(N2CC(C(=O)Nc3nnc(SCCC4OCCO4)s3)CC2=O)cc1 (stereo not given) |  | inactive: -13.9%

Row | SMILES | Potency | activity, negative = inhibition
23 | CCCS(=O)(=O)c1c(S(=O)(=O)CCC)c2c(N)cccn2c1C(=O)c1ccc(F)cc1 | inconclusive: 10 µM [inhibitor, partial curve, poor fit] | 
24 | COc1ccc(CCC(=O)NCCS(=O)(=O)N2CCN(c3ccccc3F)CC2)cc1 | inconclusive: 79.4 µM [inhibitor, single point] | 
25 | CC(C)C[C@@H](CNCC(=O)[C@H](CC(C)C)NC(=O)c1[nH]cnc1C(=O)N[C@@H](C)CN)NC(=O)c1nc[nH]c1C(=O)N[C@@H](CC(C)C)C(=O)O | inconclusive: 17.8 µM [inhibitor, partial curve, poor fit] | 
26 | COc1ccc(CCN(C)C(=O)C2CCN(Cc3ccc(C)cc3)CC2)cc1OC |  | inactive: 34.3%
27 | O=C(c1cc(Br)ccc1OC(F)F)N1CCN2CCCC2C1 (stereo not given) |  | inactive: 7.09%
28 | O=C(Nc1cccc(C(F)(F)F)c1)c1cccc(C(=O)Nc2cccc(C(F)(F)F)c2)c1 | inconclusive: 89.1 µM [inhibitor, single point] | 
29 | COCCCNC(=O)CCCn1c(=O)c2cccn2c2ccccc21 |  | inactive: 15%
30 | CCOC(=O)Cc1csc(NC(=O)C(C)(C)CC)n1 | inconclusive: 89.1 µM [inhibitor, single point] | 
31 | Cc1ccc2occ(C(=O)c3ccco3)c(=O)c2c1 | inconclusive: 39.8 µM [inhibitor, single point] | 
32 | CCCCNC(=O)c1c(CSc2ccc(Cl)cc2)noc1C(=O)NCc1ccccc1 | inconclusive: 35.5 µM [inhibitor, partial curve, poor fit] | 
33 | CCCN1Cc2cccc(C(=O)NCc3ccc4c(c3)OCO4)c2C1=O | inconclusive: 100 µM [inhibitor, single point] | 
34 | O=C(NCc1ccccn1)c1ccc(CNS(=O)(=O)c2ccc(F)cc2)cc1 |  | inactive: 6.68%
35 | O=C(/C=C/c1ccco1)Nc1cccnc1Cl | inconclusive: 22.4 µM [inhibitor, full curve, poor fit] | 
36 | O=C(O)C1=C[C@@H](c2ccc3c(c2)OCO3)C[C@@H](OCCCCO)O1 | inconclusive: 100 µM [inhibitor, single point] | 
37 | C=CCc1cc(/C=C/c2nc(O)c([N+](=O)[O-])c(=O)[nH]2)cc(OC)c1O | inconclusive: 15.8 µM [inhibitor, full curve, poor fit] | 
38 | COc1ccccc1Cn1cc(C(=O)c2ccc(C)cc2)c(=O)c2cc(F)cc(F)c21 |  | inactive: 7.71%
39 | CCCCCC/C=N/Nc1nnc(Cc2ccc(OC)c(OC)c2)c(=O)[nH]1 | inconclusive: 39.8 µM [inhibitor, full curve, poor fit] | 
40 | CC1CCCN(CC(O)COc2ccc(-c3ccccc3)cc2)C1 (stereo not given) | inconclusive: 56.2 µM [inhibitor, partial curve, poor fit] | 
41 | COc1ccc(CN2CCN(C(=O)Cn3nc(C(=O)O)c4ccccc4c3=O)CC2)cc1F | inconclusive: 70.8 µM [inhibitor, partial curve, poor fit] | 
42 | COc1cc(NC(=O)CC(c2cccs2)N2Cc3ccccc3C2=O)cc(OC)c1OC (stereo not given) |  | inactive: 33.5%
43 | CCCc1ccc(C(=O)NNC(=O)c2ccc(Cl)cc2)cc1 | inconclusive: 89.1 µM [inhibitor, single point] | 
44 | Cc1ccc(C(C[N+](=O)[O-])Sc2ccc(N)cc2)cc1 (stereo not given) |  | inactive: 59.3%

Row | SMILES | Potency | activity, negative = inhibition
45 | CC(C)(O)C(O)COc1c2ccoc2cc2oc(=O)ccc12 (stereo not given) | inconclusive: 79.4 µM [inhibitor, partial curve, poor fit] | 
46 | Cc1cc(C)cc(-c2nnc(SCC(=O)c3ccc4c(c3)OCCO4)o2)c1 |  | inactive: 7.63%
47 | CN(C(=O)NC(=O)C1=C(N2CCOCC2)/C(=C/c2ccccc2)CC1)S(C)(=O)=O | inconclusive: 15.8 µM [inhibitor, full curve, poor fit] | 
48 | CCCS(=O)(=O)N1CCN(S(=O)(=O)c2ccccc2[N+](=O)[O-])CC1 |  | inactive: 23.7%
49 | O=C(NC1CC1)c1ccc(CS(=O)c2ccccc2)o1 (stereo not given) | inconclusive: 89.1 µM [inhibitor, single point] | 
50 | CN(C)c1cc(F)c(C=O)cc1F |  | inactive: 29.2%
51 | O=C(CSc1nc2ccccc2c(=O)n1-c1ccccc1)NC(=O)CN1CCCC1=O | inconclusive: 56.2 µM [inhibitor, partial curve, poor fit] | 
52 | CN(C)c1ccc(/C=C/N2C=CCc3c2ccc2ccccc32)cc1 | inconclusive: 56.2 µM [inhibitor, partial curve, poor fit] | 
53 | Cc1ccc(S(=O)(=O)N2CCCC(C(=O)NCc3cccnc3)C2)cc1Cl (stereo not given) | inconclusive: 20 µM [inhibitor, partial curve, poor fit] | 
54 | N#C/C(=C\c1ccc(C(=O)O)cc1)c1nc2sc3c(c2c(=O)[nH]1)CCCC3 | inconclusive: 12.6 µM [inhibitor, full curve, poor fit] | 
55 | COc1cccc(C(=O)Nc2ccc(C(=O)O)cc2)c1 | inconclusive: 39.8 µM [inhibitor, single point] | 
56 | O=C1/C(=N\S(=O)(=O)c2cccs2)C([n+]2ccccc2)=C([O-])c2ccccc21 |  | inactive: 29.9%
57 | Cc1ccccc1NS(=O)(=O)c1nnc(NC(=O)c2ccco2)s1 |  | inactive: 3.85%
58 | O=C(NC1CCCc2ccccc21)C1CCN(S(=O)(=O)c2cccc(C(F)(F)F)c2)CC1 (stereo not given) | inconclusive: 89.1 µM [inhibitor, partial curve, poor fit] | 
59 | O=C(Nc1nnc(-c2ccc(Cl)cc2)o1)Nc1ccccc1F |  | inactive: 52.6%
60 | CC(=O)NC(Cc1ccccc1)C(=O)NC1CCN(C(=O)NC2CCCCC2)CC1 (stereo not given) | inconclusive: 89.1 µM [inhibitor, single point] | 
61 | N#Cc1nc(COc2cccc(Cl)c2)oc1NCc1ccncc1 | inconclusive: 39.8 µM [inhibitor, single point] | 
62 | COc1ccccc1NC(=O)CSCc1ccc([N+](=O)[O-])cc1 | inconclusive: 56.2 µM [inhibitor, partial curve, poor fit] | 
63 | Cc1nc2ccccn2c1C(=O)N/N=C/c1ccc(CNC(=O)C(=O)Nc2ccccc2)o1 | active: 89.1 µM | 
64 | O=C(Nc1ccccc1)Nc1ccc(F)cc1F | inconclusive: 3.55 µM [inhibitor, full curve, poor fit] | 
65 | COc1ccc(C)cc1-n1nnnc1SC/C(O)=C(\C#N)c1nc2ccccc2[nH]1 | inconclusive: 79.4 µM [inhibitor, partial curve] | 

Three entries from above in another layout.
CCCCNC(=O)c1c(CSc2ccc(Cl)cc2)noc1C(=O)NCc1ccccc1
  Potency: inconclusive: 35.5 µM [inhibitor, partial curve, poor fit]
COc1ccc(CN2CCN(C(=O)Cn3nc(C(=O)O)c4ccccc4c3=O)CC2)cc1F
  Potency: inconclusive: 70.8 µM [inhibitor, partial curve, poor fit]
Cc1ccc(C(C[N+](=O)[O-])Sc2ccc(N)cc2)cc1 (stereo not given)
  activity, negative = inhibition: inactive: 59.3%
